Some entries of the source have several records that differ or are many. The other results are left out here. The source may hold further records. The records of an entry seem to repeat one measurement on other runs, samples or individuals.
Biological target: human 5HT1A receptor (Homo sapiens, UniProt P08908)
Test: Radioligand binding to the 5-HT1A receptor, [3H]8-OH-DPAT
Conditions: Example 77; membranes of HEK293 cells, [3H]8-OH-DPAT 0.5 nM; <5 = not active at up to 10 μM
Description: Frozen membranes of HEK293 cells, stably-transfected with human 5-HT1A receptor (Perkin Elmer) were thawed on ice, briefly homogenised with an Ultra Turrax homogeniser and then suspended in Tris-HCl buffer (50 mM pH 7.7) supplemented with CaCl2 (4 mM) at an appropriate pre-determined protein concentration (5-10 μg protein per incubation mixture). Together with [^3H]8-OH-DPAT (0.5 nM final concentration; Perkin Elmer, USA), the membrane suspension was added to the test compound and incubated (30 min at 37° C.) in a total volume of 400 μl. Non-specific binding was determined in the presence of Spiroxatrine (1 μM). Free radioligand was separated from the radioligand-receptor complex by means of rapid vacuum filtration over GF/B unifilter plates with a Packard Harvester Filtration Unit. Unifilter plates were washed with ice cold Tris-HCl buffer (50 mM, pH 8.0) and then dried overnight. Bound counts were measured in a Topcount Scintillation Counter in the presence of Microscint O.

By UniProt entry, the sequences of proteins in these tests, tags left out.
UniProt P08908, whole entry: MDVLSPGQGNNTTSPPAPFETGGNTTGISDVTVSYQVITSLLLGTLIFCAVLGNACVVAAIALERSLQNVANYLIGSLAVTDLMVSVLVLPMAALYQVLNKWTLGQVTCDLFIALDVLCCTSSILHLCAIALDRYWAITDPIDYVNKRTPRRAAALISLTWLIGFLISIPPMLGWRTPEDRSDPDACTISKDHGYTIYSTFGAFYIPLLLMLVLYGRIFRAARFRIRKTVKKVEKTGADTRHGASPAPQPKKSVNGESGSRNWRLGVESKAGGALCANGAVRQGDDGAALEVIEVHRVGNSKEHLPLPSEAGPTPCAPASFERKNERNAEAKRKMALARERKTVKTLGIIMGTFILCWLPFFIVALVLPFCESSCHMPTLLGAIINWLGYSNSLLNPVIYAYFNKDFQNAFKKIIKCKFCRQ

O[C@H](COc1cccc2[nH]ccc12)CN1C[C@@H]2CC=CC[C@H]1CN2c1ccc2ccccc2c1
h5HT1A pIC50: 6.44 and 6.75

— US8530475B2, “Bridged aryl piperazines derivatives useful for the treatment of CNS, GI-urinary and reproductive disorders” (Janssen Pharmaceutica NV, priority 2006, dated 2013)
